In this assay the target is mouse hFc-tagged IFN-β (mouse) (UniProt P01575). As to the kind of experiment: co-IP; about 500 µg of proteins of 30-fold concentrated hEP-CdM incubated with or without mouse hFc-tagged IFN-β (1:1000) at 4 °C overnight; protein G magnetic beads 4 h at 4 °C; five washes in IP buffer; eluted by boiling in loading buffer; n = 3; only the target purified.

By UniProt entry, the sequences of proteins in these tests, tags left out. Residues count along the entry.
UniProt P01575, residues 22-182: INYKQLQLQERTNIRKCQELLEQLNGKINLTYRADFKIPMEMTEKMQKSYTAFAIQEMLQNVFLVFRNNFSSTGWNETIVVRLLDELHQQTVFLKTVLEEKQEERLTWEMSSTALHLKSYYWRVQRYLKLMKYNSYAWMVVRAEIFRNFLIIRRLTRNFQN
UniProt Q8WWA0, residues 19-298: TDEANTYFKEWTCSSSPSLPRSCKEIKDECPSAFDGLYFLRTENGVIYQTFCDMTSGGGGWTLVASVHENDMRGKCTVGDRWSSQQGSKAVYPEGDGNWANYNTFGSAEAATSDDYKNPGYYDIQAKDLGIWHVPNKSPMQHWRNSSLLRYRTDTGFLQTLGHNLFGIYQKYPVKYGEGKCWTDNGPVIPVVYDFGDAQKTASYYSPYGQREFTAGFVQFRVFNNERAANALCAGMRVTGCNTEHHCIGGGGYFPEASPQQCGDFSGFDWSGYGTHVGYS

Results are given in words; binding and its absence hold for the method and conditions named. Binding seen in cells or lysates may run through a third protein. Some results given as binding are weak or reduced against the parent protein; the word gives no strength.

For “intelectin 1 (ITLN1), human, secreted by hEPs (from UniProt Q8WWA0 19-298)”, the binding result is listed as “binds”.

These data come from paper PMC10520683.
